Measured values published in patent US20230000868A1, “USE OF 2-PHENYL-6-(1H-IMIDAZOL-1-YL) QUINAZOLINE FOR THE PREVENTION OF ABUSE AND OF SIDE EFFECTS OF AT LEAST ONE OPIOID” (ROTTAPHARM BIOTECH S.R.L., priority 2019, published 2023).
For at least one compound, name, drawing or mass did not settle the structure.

Test: Inflammatory pain induced by complete Freund adjuvant (CFA)
Type: in vivo, rat
Conditions: morphine 1 mg/kg alone; FIG. 1, described as known effects
Source text: Previous art in the scientific literature describes that imidazoline I2 receptor agonists potentiate morphine-induced analgesia.

In the case of `CN1CC[C@]23c4c5ccc(O)c4O[C@H]2[C@@H](O)C=C[C@H]3[C@H]1C5` [Morphine, morphine], the analgesic effect is reported as “not analgesic per se”.
